Laboratory results taken from patent US20090298894A1, “AMINO ACID COMPOUNDS” (Asahi Kasei Pharma Corporation, priority 2008, published 2009).
Structures can show the parent of a compound that is named as a salt. Some results were stated once for a whole list of compounds, not compound by compound.

Chains of the proteins cited; added tags and fusions are not shown. Lines headed by an entry give the natural chain unless they say otherwise; changes in a name come on top.
UniProt Q99500: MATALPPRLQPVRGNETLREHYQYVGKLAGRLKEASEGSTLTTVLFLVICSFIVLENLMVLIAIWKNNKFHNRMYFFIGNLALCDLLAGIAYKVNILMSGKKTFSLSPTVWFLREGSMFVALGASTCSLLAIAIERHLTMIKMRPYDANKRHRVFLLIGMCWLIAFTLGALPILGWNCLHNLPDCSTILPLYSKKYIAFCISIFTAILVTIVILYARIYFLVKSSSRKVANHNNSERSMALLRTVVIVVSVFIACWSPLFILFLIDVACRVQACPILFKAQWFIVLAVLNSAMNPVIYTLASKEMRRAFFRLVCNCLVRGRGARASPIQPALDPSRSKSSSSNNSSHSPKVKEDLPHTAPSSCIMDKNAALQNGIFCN

What follows are compounds tested against T1, human S1P3 (Homo sapiens, UniProt Q99500) (assay: 35S-GTPγS binding assay using a membrane prepared from CHO cells which stably express human S1P3). Conditions: CHO cell membrane stably expressing human S1P3, read-out: EC50 (concentration of agonist required to give 50% of its own maximum increase ratio), human S1P3.
T1 construct: expressed in transfected cells
Format: biochemical

EC50, ≥ 1000 nM:
Cc1cc(-c2nc(-c3ccc4c(c3)CCC4NC3CC(C(=O)O)C3)no2)ccc1-c1cccc(N)c1C(F)(F)F (stereo not drawn) [Example 107, 1,3-Trans-3-(5-(5-(3′-amino-2-methyl-2′-trifluoromethylbiphenyl-4-yl)-1,2,4-oxadiazol-3-yl)-2,3-dihydro-1H-inden-1-ylamino)cyclobutane carboxylic acid]
Cc1cc(-c2nc(-c3ccc4c(c3)CCC4N[C@H]3C[C@H](C(=O)O)C3)no2)cc(C)c1-c1ccccc1F (stereo partly drawn) [Example 15]
Cc1cc(-c2nc(-c3ccc4c(c3)CN([C@H]3C[C@H](C(=O)O)C3)C4)no2)ccc1-c1ccccc1C#N [Example 97]
Cc1cc(-c2nc(-c3ccc4c(c3)CN([C@H]3C[C@H](C(=O)O)C3)C4)no2)ccc1-c1ccccc1Cl [Example 66]
Cc1cc(-c2nc(-c3ccc4c(c3)CCC4N[C@H]3C[C@H](C(=O)O)C3)no2)ccc1-c1cccc(Cl)c1C(F)(F)F (stereo partly drawn) [Example 50]
Cc1cc(-c2nc(-c3ccc4c(c3)CCC4N[C@H]3C[C@H](C(=O)O)C3)no2)ccc1-c1c(F)ccc(C)c1Cl (stereo partly drawn) [Example 43]
Cc1cc(-c2nc(-c3ccc4c(c3)CCC4N[C@H]3C[C@H](C(=O)O)C3)no2)ccc1-c1cc(Cl)ccc1F (stereo partly drawn) [Example 35]
Cc1cc(-c2nc(-c3cc(C)c4c(c3)CN([C@H]3C[C@H](C(=O)O)C3)C4)no2)ccc1-c1ccccc1C(F)(F)F [Example 54]
Cc1cc(-c2nc(-c3ccc4c(c3)CN([C@H]3C[C@H](C(=O)O)C3)C4)no2)c(F)cc1-c1cccc(F)c1 [Example 87]
Cc1cc(-c2nc(-c3ccc4c(c3)CCC4N[C@H]3C[C@H](C(=O)O)C3)no2)ccc1-c1cccc(Cl)c1F (stereo partly drawn) [Example 34]
O=C(O)[C@H]1C[C@H](N2Cc3ccc(-c4noc(-c5ccc(-c6ccccc6F)c(Cl)c5)n4)cc3C2)C1 [Example 68]
Cc1cc(-c2nc(-c3ccc4c(c3)CCC4N[C@H]3C[C@H](C(=O)O)C3)no2)ccc1-c1cccc(C(F)(F)F)c1F (stereo partly drawn) [Example 31]
Cc1cc(-c2nc(-c3ccc4c(c3)CCC4N[C@H]3C[C@H](C(=O)O)C3)no2)ccc1-c1cc(F)ccc1C#N (stereo partly drawn) [Example 65]
Cc1cc(-c2nc(-c3ccc4c(c3)CCC4N[C@H]3C[C@H](C(=O)O)C3)no2)ccc1-c1cccc(C(F)(F)F)c1 (stereo partly drawn) [Example 33]
Cc1cc(-c2nc(-c3ccc4c(c3)CCC4N[C@H]3C[C@H](C(=O)O)C3)no2)ccc1-c1cccc(I)c1C(F)(F)F (stereo partly drawn) [Example 52]
O=C(O)[C@H]1C[C@H](NC2CCc3cc(-c4noc(-c5ccc(-c6ccccc6F)c(F)c5)n4)ccc32)C1 (stereo partly drawn) [Example 61]
O=C(O)[C@H]1C[C@H](NC2CCc3cc(-c4noc(-c5ccc(-c6ccccc6)c(Cl)c5)n4)ccc32)C1 (stereo partly drawn) [Example 62]
Cc1cc(-c2nc(-c3cc(Cl)c4c(c3)CN([C@H]3C[C@H](C(=O)O)C3)C4)no2)ccc1-c1ccccc1 [Example 77]
Cc1cc(-c2nc(-c3ccc4c(c3)CCC4N[C@H]3C[C@H](C(=O)O)C3)no2)ccc1-c1ccccc1F (stereo partly drawn) [Example 20]
COc1cc(-c2nc(-c3ccc4c(c3)CN([C@H]3C[C@H](C(=O)O)C3)C4)no2)c(F)cc1-c1ccccc1 [Example 98]
Cc1cc(-c2nc(-c3ccc4c(c3)CCC4N[C@H]3C[C@H](C(=O)O)C3)no2)ccc1-c1ccoc1 (stereo partly drawn) [Example 14]
Cc1cc(-c2nc(-c3ccc4c(c3)CCC4N[C@H]3C[C@H](C(=O)O)C3)no2)c(F)cc1-c1ccccc1C(F)(F)F (stereo partly drawn) [Example 30]
Cc1cc(-c2nc(-c3ccc4c(c3)CCC4N[C@H]3C[C@H](C(=O)O)C3)no2)c(F)cc1-c1ccccc1OC(F)(F)F (stereo partly drawn) [Example 24]
Cc1cc(-c2nc(-c3ccc4c(c3)CCC4N[C@H]3C[C@H](C(=O)O)C3)no2)ccc1-c1ccncc1 (stereo partly drawn) [Example 27]
O=C(O)C1CC(NC2CCc3cc(-c4noc(-c5ccc(-c6ccccc6F)c(Cl)c5)n4)ccc32)C1 (stereo not drawn) [Example 55, 1,3-Trans-3-(5-(5-(2-chloro-2′-fluorobiphenyl-4-yl)-1,2,4-oxadiazol-3-yl)-2,3-dihydro-1H-inden-1-ylamino)cyclobutane carboxylic acid hydrochloric acid salt]
Cc1cc(-c2nc(-c3ccc4c(c3)CCC4N[C@H]3C[C@H](C(=O)O)C3)no2)ccc1-c1cccc(F)c1C(F)(F)F (stereo partly drawn) [Example 39]
Cc1cc(-c2nc(-c3ccc4c(c3)CCC4NC3CC(C(=O)O)C3)no2)c(F)cc1-c1cccc(C(F)(F)F)c1C(F)(F)F.Cl (stereo not drawn) [Example 48]
Cc1cc(-c2nc(-c3ccc4c(c3)CN([C@H]3C[C@H](C(=O)O)C3)C4)no2)ccc1-c1cccc(F)c1 [Example 79]
Cc1cc(-c2nc(-c3ccc4c(c3)CN([C@H]3C[C@H](C(=O)O)C3)C4)no2)c(F)cc1-c1cccc(F)c1C(F)(F)F [Example 96]
Cc1cc(-c2nc(-c3ccc4c(c3)CN([C@H]3C[C@H](C(=O)O)C3)C4)no2)c(F)cc1-c1ccccc1F [Example 89]
Cc1cc(-c2nc(-c3ccc4c(c3)CCC4N[C@H]3C[C@H](C(=O)O)C3)no2)ccc1-c1c(F)cccc1F (stereo partly drawn) [Example 42]
Cc1cc(-c2nc(-c3ccc4c(c3)CCC4N[C@H]3C[C@H](C(=O)O)C3)no2)ccc1-c1cccc(C(F)(F)F)c1C(F)(F)F (stereo partly drawn) [Example 47]
Cc1cc(-c2nc(-c3ccc4c(c3)CN([C@H]3C[C@H](C(=O)O)C3)C4)no2)ccc1-c1ccccc1OC(F)(F)F [Example 82]
Cc1cc(-c2nc(-c3ccc4c(c3)CCC4N[C@H]3C[C@H](C(=O)O)C3)no2)ccc1-c1c(Cl)ccc(C)c1F (stereo partly drawn) [Example 44]
Cc1cscc1-c1c(C)cc(-c2nc(-c3ccc4c(c3)CCC4N[C@H]3C[C@H](C(=O)O)C3)no2)cc1C (stereo partly drawn) [Example 22]
Cc1cc(-c2nc(-c3ccc4c(c3)CCC4N[C@H]3C[C@H](C(=O)O)C3)no2)c(F)cc1-c1cccc(C(F)(F)F)c1F (stereo partly drawn) [Example 41]
CSc1ccccc1-c1ccc(-c2nc(-c3ccc4c(c3)CCC4N[C@H]3C[C@H](C(=O)O)C3)no2)cc1C (mixture of isomers) [Example 6, 1,3-Trans-3-(5-(5-(2-methyl-2′-methylthiobiphenyl-4-yl)-1,2,4-oxadiazol-3-yl)-2,3-dihydro-1H-inden-1-ylamino)cyclobutane carboxylic acid hydrochloric acid salt]
Cc1cc(-c2nc(-c3ccc4c(c3)CCC4N[C@H]3C[C@H](C(=O)O)C3)no2)c(F)cc1-c1ccccc1F (stereo partly drawn) [Example 26]
Cc1cc(-c2nc(-c3ccc4c(c3)CCC4N[C@H]3C[C@H](C(=O)O)C3)no2)ccc1-c1cccc(C)c1F (stereo partly drawn) [Example 37]
Cc1cc(-c2nc(-c3ccc4c(c3)CN([C@H]3C[C@H](C(=O)O)C3)C4)no2)ccc1-c1cccc(C(F)(F)F)c1F [Example 92]
Cc1cc(-c2nc(-c3ccc4c(c3)CN([C@H]3C[C@H](C(=O)O)C3)C4)no2)ccc1-c1cc(F)cc(F)c1F [Example 100]
Cc1cscc1-c1c(C)cc(-c2nc(-c3ccc4c(c3)CN([C@H]3C[C@H](C(=O)O)C3)C4)no2)cc1C [Example 86]
